Test results taken from PubChem BioAssay AID1347075 (National Center for Advancing Translational Sciences (NCATS), 2019).
Among all 400,000 compounds or so, about 5,500 (1.4%) were called active. Inconclusive means that the source gave no clear call. Such entries were picked first, then a sample of the others. The call rests on the fitted dose curve; in most records, active means well fitted cell-killing curve with a large enough effect; inconclusive means small, poorly fitted or top-dose-only effect, or effect the other way; inactive means flat fitted curve, though single readings scatter. A potency beside an inconclusive call is a rough fit, not a confirmed value. More than one record can exist for a structure, and the calls need not agree.

Assay: qHTS assay for MDR1-selective chemotherapeutics: Primary screen using the parental adenocarcinoma cell KB-3-1; further: nearly all actives have a fitted effect of over 60% in size
Settings: KB-3-1 viability, CellTiter-Glo ATP luminescence, 72 h; activity change, negative = cytotoxic: at 46.1 µM (top of the series)
In short: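 Parental KB-3-1 viability, qHTS format: 72 h compound exposure, 37 °C; CellTiter-Glo; media-only wells and DMSO plates as controls; concentration-effect fits on corrected data.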
On the % scale 0 is the no-effect control and ±100 the full control effect; potency means the concentration at half of the fitted maximal effect.

SMILES	activity change, negative = cytotoxic	Potency
COc1cccc(C(=O)/C=C/Nc2cc(C)ccc2O)c1	inactive: -11.3%	–
CN(C)/C=N/c1ncc(C(=O)c2ccc(-c3ccccc3)cc2)s1	inactive: 9.35%	–
COc1ccc(C(=O)NNC(=O)c2ccccc2[N+](=O)[O-])cc1Br	–	inconclusive: 29.1 µM [cytotoxic, single point]
COc1ccc(C(=O)NCC(C)(C)SCc2c(C)cc(C)cc2C)cc1	inactive: 23.9%	–
Cc1ccc(OCCOC(=O)c2cc(S(=O)(=O)N3CCCCC3)ccc2N2CCOCC2)cc1	–	active: 4.61 µM
COC(=O)C1=CN(c2ccc(F)cc2)C(N)=C(C#N)C1c1ccccc1 (stereo not drawn)	–	inconclusive: 29.1 µM [cytotoxic, single point]
Cc1ccc(C)c(S(=O)(=O)N2CCN(C(C)C(=O)Nc3ccccc3-c3ccccc3)CC2)c1 (stereo not drawn)	–	inconclusive: 29.1 µM [cytotoxic, single point]
CSc1ncccc1C(=O)Nc1cccc(S(=O)(=O)N(C)c2ccccc2)c1	–	inconclusive: 16.4 µM [cytotoxic, single point]
O=C(CN1CCN(C(=O)c2ccc(-c3nc4ccccc4s3)o2)CC1)Nc1ccc(F)cc1	–	inconclusive: 16.4 µM [cytotoxic, single point]
CCOc1ccc(N(CC(=O)NCc2ccccc2Cl)S(=O)(=O)c2c(C)[nH]c(=O)[nH]c2=O)cc1	–	inconclusive: 23.1 µM [rising, single point]
COCCn1c(SCc2csc(-c3ccccc3)n2)nc2ccccc21	–	active: 16.4 µM
CC(C)C(=O)N=c1sc2cccc(F)c2n1C	–	inconclusive: 0.0082 µM [cytotoxic, full curve]
C[C@@H](NC(=O)c1[nH]cnc1C(=O)Nc1cccc(Cl)c1)c1ccccc1	inactive: -22%	–
CN1C(=O)c2ccccc2Sc2ccc(NC(=O)COc3ccc(F)cc3)cc21	–	inconclusive: 29.1 µM [cytotoxic, single point]
CN(C)c1ccc(N=Nc2ccccc2C(=O)OCC(=O)N2CCCCCC2)cc1	inconclusive: -46.3% [cytotoxic]	–
Cc1nn(-c2ccccc2)c2nc(C3CC3)cc(C(=O)Nc3ccccc3F)c12	–	inconclusive: 16.4 µM [cytotoxic, single point]
CN1CCCN(S(=O)(=O)c2ccc3c(c2)OCCO3)CC1	–	inconclusive: 16.4 µM [rising, partial curve]
Cc1ccccc1OCCCCCn1ccnc1	–	inconclusive: 18.4 µM [cytotoxic, single point]
CC#CC[N+](C)(C)CCCCCCCCCC	–	active: 5.8 µM
Cc1ccccc1C(=O)Nc1nnc(S(=O)(=O)N2c3ccccc3CC2C)s1 (stereo not drawn)	–	inconclusive: 18.4 µM [cytotoxic, partial curve, poor fit]
Cc1c(NS(=O)(=O)c2ccccc2)cc(C(C)C)c(O)c1S(=O)(=O)c1ccc(Cl)cc1	inactive: 0%	–
CCCc1n[nH]c(=O)c2c1nnn2Cc1ccccc1	inactive: 6.05%	–
C=CCOC(=O)C1=C(C)NC(SCC(=O)Nc2nccs2)=C(C#N)C1c1ccc(Cl)cc1 (stereo not drawn)	–	inconclusive: 25.1 µM [cytotoxic, single point]

SMILES	activity change, negative = cytotoxic	Potency
O=C(CNC(c1ccccc1)c1ccccc1)Nc1c(F)cccc1F	–	inconclusive: 23.1 µM [cytotoxic, single point]
O=C(NCCc1c[nH]c2ccccc12)C(=O)Nc1cc2c3c(c1)CC(=O)N3CCC2	–	inconclusive: 13 µM [rising, partial curve]
O=C(O)c1cnn2c(-c3ccc(F)cc3)ccnc12	–	inconclusive: 0.0291 µM [rising, full curve]
CC(C)(C)c1ccc(C(=O)C[n+]2cc(Br)cc(Br)c2)cc1	inactive: -8.88%	–
CCc1nc(N)nc(N)c1-c1ccc(N(C)Cc2ccccc2)c([N+](=O)[O-])c1	–	active: 4.11 µM
CC(C)C[C@H](NC(=O)c1nc[nH]c1C(=O)N[C@@H](CC(C)C)C(=O)OC(C)(C)C)C(=O)OCc1ccccc1	–	inconclusive: 29.1 µM [cytotoxic, single point]
Cc1ccc(C(C)(C)C)c(OCCCn2ccnc2)c1	–	inconclusive: 0.0366 µM [rising, full curve]
CC(=O)Oc1ccc(-c2ccc(C(=O)OCC(=O)c3c(N)n(C)c(=O)n(C)c3=O)cc2)cc1	inactive: -5.05%	–
CN(CC(=O)Nc1ccc(Cl)cc1)C(=O)c1cccc(S(=O)(=O)N2CCN(Cc3ccccc3)CC2)c1	–	active: 16.4 µM
COc1cc2c(cc1OC)/C(=C/c1ccc(Br)cc1)C(=O)OC2	–	active: 20.6 µM
CN1CCN(c2nc(-c3ccco3)cc(C(F)(F)F)n2)CC1	inactive: 20.3%	–
O=C(NCc1ccccn1)C1CCN(S(=O)(=O)c2cccs2)CC1	–	inconclusive: 29.1 µM [cytotoxic, single point]
COc1ccc(/C=N/NC(=O)c2cc3c(ccc4ccccc43)o2)c(OC)c1	–	inconclusive: 29.1 µM [cytotoxic, single point]
NNc1nc2cccnc2n(CCNc2ncc(C(F)(F)F)cc2Cl)c1=O	–	inconclusive: 16.4 µM [cytotoxic, single point]
CCC(C)NC(=S)Nc1ccc2nc(N3CCN(CC)CC3)cc(C)c2c1 (stereo not drawn)	–	inconclusive: 29.1 µM [cytotoxic, single point]
CN(CC(=O)Nc1cccc(F)c1)C(=O)/C=C/c1cn(Cc2ccccc2)nc1-c1cccnc1	inactive: -1.4%	–
Cc1ccc(-c2nnn(CC(=O)N(CC(=O)NC3CCCCC3)c3cccc(F)c3)n2)o1	inconclusive: 39.8%	–
O=C(c1[nH]c(C(F)(F)F)nc1-c1ccccc1)N1CCN(c2ccccc2)CC1	–	active: 6.51 µM
Cn1c(-c2ccc3c(c2)OCO3)cnc1NCc1ccc(Cl)cc1	inactive: 6.54%	–
CCN(CC)c1cc(C)c2cc(NC(=O)c3ccccc3OC)ccc2n1	–	active: 18.4 µM
Cc1nc2ccccn2c1-c1ccnn1S(=O)(=O)c1ccc(F)cc1	–	inconclusive: 29.1 µM [cytotoxic, single point]
O=C(O)CCCNC(=O)/C(=C\C=C\c1ccccc1)NC(=O)c1ccccc1Cl	–	inconclusive: 3.26 µM [rising, partial curve, poor fit]
Cc1cc(/C=C2/NC(=O)N(Cc3ccccc3F)C2=O)c(C)n1-c1ccccn1	inactive: 10.9%	–

SMILES	activity change, negative = cytotoxic	Potency
COc1cc2ccccc2cc1C(=O)N/N=C/c1cccs1	–	active: 2.31 µM
CSc1ccccc1NC(=O)c1cc(-c2cccnc2)nc2ccc(Br)cc12	–	inconclusive: 18.4 µM [cytotoxic, single point]
Cc1cc(C)c(OCCNC(=O)c2ccccc2Sc2ccccc2C#N)c(C)c1	–	inconclusive: 29.1 µM [cytotoxic, single point]
O=C(CNC(=O)C12CC3CC(CC(C3)C1)C2)N1CCN(S(=O)(=O)/C=C/c2ccccc2)CC1	–	inconclusive: 20.6 µM [cytotoxic, single point]
COc1ccc(-c2nnc(SCC(=O)NCc3ccc(C)cc3)nc2-c2ccc(OC)c(OC)c2)cc1OC	–	inconclusive: 29.1 µM [cytotoxic, single point]
CC(=N/O)/C(C)=N\NC(=O)c1ccccn1	inactive: 0%	–
COc1ccc(-c2c(C#Cc3ccsc3)c3cc(-c4ccc(OC)c(F)c4)ccc3n2C)cc1	inactive: 0.722%	–
CCc1ccc(C(=O)c2cn(CC(=O)Nc3ccc(OC)c(OC)c3)c3ccc(C)cc3c2=O)cc1	inactive: 2.64%	–
CC(=O)Nc1ccc(-c2ccnc3c2CC(C(=O)NCCC(F)(F)F)O3)cc1 (stereo not drawn)	–	inconclusive: 18.4 µM [cytotoxic, single point]
CC12CC3CC(C)(C1)CC(Nc1nc(N4CCOCC4)nc4ccccc14)(C3)C2	–	inconclusive: 25.9 µM [cytotoxic, single point]
CCOC(=O)c1ccccc1OCc1cc(/C=N/n2cncn2)ccc1OC	–	inconclusive: 29.1 µM [cytotoxic, single point]
CC(C)(C)c1ccc(OCC(O)CN(CCO)CC(O)Cn2ccc3ccccc32)cc1 (stereo not drawn)	–	inconclusive: 29.1 µM [cytotoxic, single point]
COCCN1C(=O)c2[nH]nc(-c3ccccc3O)c2C1c1ccc(Cl)c(Cl)c1 (stereo not drawn)	inactive: -17.7%	–
O=C(CSc1nc(C2CC2)nc2ccccc12)N1c2ccccc2Sc2ccc(C(F)(F)F)cc21	–	inconclusive: 29.1 µM [cytotoxic, single point]
Cn1c2c(c(=O)n(C)c1=O)C(C(F)(F)F)(C(F)(F)F)N=C(c1ccccc1Cl)N2	–	inconclusive: 13 µM [cytotoxic, partial curve, poor fit]
COc1ccc(CN(C)C(=O)c2cccc(S(=O)(=O)N3CCN(c4ccccc4)CC3)c2)c(OC)c1OC	–	inconclusive: 29.1 µM [cytotoxic, single point]
CC(C)C[C@H](NC(=O)c1[nH]cnc1C(=O)N[C@@H](C)C(=O)OC(C)(C)C)C(=O)OCc1ccccc1	–	inconclusive: 29.1 µM [cytotoxic, single point]
CC(/C=C/c1ccccc1F)=N\NC(=O)c1cccc(F)c1	–	inconclusive: 16.4 µM [cytotoxic, single point]
CC1(C)CCCN(Cc2c(O)ccc3c(=O)c(-c4nc5ccccc5s4)c(N)oc23)C1	–	inconclusive: 20.6 µM [cytotoxic, single point]
CCOc1ccc(CSC2=NCCN2)cc1[N+](=O)[O-]	–	inconclusive: 18.4 µM [cytotoxic, single point]
Cc1nn(-c2ccccc2)c(C)c1/C=N/NC(=O)c1cc(C23CC4CC(CC(C4)C2)C3)[nH]n1	–	inconclusive: 20.6 µM [cytotoxic, single point]
O=C(Cn1c(=O)n(-c2ccc(F)cc2)c(=O)c2sccc21)N1CCCC1	–	inconclusive: 29.1 µM [cytotoxic, single point]

A few values from the results shown.
`CN(CC(=O)Nc1ccc(Cl)cc1)C(=O)c1cccc(S(=O)(=O)N2CCN(Cc3ccccc3)CC2)c1` | Potency: active: 16.4 µM
`COc1cc2c(cc1OC)/C(=C/c1ccc(Br)cc1)C(=O)OC2` | Potency: active: 20.6 µM
`Cc1ccccc1OCCCCCn1ccnc1` | Potency: inconclusive: 18.4 µM [cytotoxic, single point]
`Cc1ccc(C(C)(C)C)c(OCCCn2ccnc2)c1` | Potency: inconclusive: 0.0366 µM [rising, full curve]
`Cc1nn(-c2ccccc2)c(C)c1/C=N/NC(=O)c1cc(C23CC4CC(CC(C4)C2)C3)[nH]n1` | Potency: inconclusive: 20.6 µM [cytotoxic, single point]
`Cc1ccccc1C(=O)Nc1nnc(S(=O)(=O)N2c3ccccc3CC2C)s1` (stereo not drawn) | Potency: inconclusive: 18.4 µM [cytotoxic, partial curve, poor fit]
